This is an account of results in patent US20050026827A1 (Societe de Conseils de Recherches et d'Applications …, priority 1987, published 2005).

Data set [1] can be described thus: general procedure: Boc solid-phase peptide synthesis; Benzhydrylamine-polystyrene resin; methylbenzhydrylamine-polystyrene resin; Boc-Leu-O-Merrifield resin; diisopropylcarbodiimide; preformed HOBt esters. The following applies: whole synthesis, scale of the general procedure 0.25-0.73 mmol, GRF analogues 0.25 mmol; for final HPLC purity: 215 nm.
Data set [2] in a line: general procedure: Boc solid-phase peptide synthesis; Boc-Leu-O-Merrifield resin; diisopropylcarbodiimide; preformed HOBt esters. The following applies: whole synthesis, scale 0.5 mmole.
Data set [3] is described as follows: general procedure: Boc solid-phase peptide synthesis; methylbenzhydrylamine resin; diisopropylcarbodiimide; preformed HOBt esters. The following applies: whole synthesis, scale 0.25 mmole.
A short description of data set [4]: general procedure: Boc solid-phase peptide synthesis; benzhydrylamine-polystyrene; diisopropylcarbodiimide; preformed HOBt esters. The following applies: whole synthesis, scale 0.5 mmole.
Data set [5] can be described thus: general procedure: Boc solid-phase peptide synthesis; methylbenzhydrylamine-polystyrene; diisopropylcarbodiimide; preformed HOBt esters. The following applies: whole synthesis, scale 0.73 mmol.

For some of these results: Strings that start with PEPTIDE1 are HELM notation: dots part the residues, brackets hold end groups and non-standard residues.

In the case of GRF(1-29)NH2, the “final HPLC purity” value in data set [1] was 99.4%.

With “PEPTIDE1{[dF].Q.W.A.V.[N-Me-D-Ala].H.L.[OMe]}$$$$V2.0”, the isolated mass in data set [2] was determined as 49 mg.

Regarding “Tyr-Ala-Asp-Ala-Ile-Phe-Thr-Asn-Serψ[CH2NH]Tyr-Arg-Lys-Val-Leu-Gly-Gln-Leu-Ser-Ala-Arg-Lys-Leu-Leu-Gln-Asp-Ile-Met-Ser-Arg-NH2”, the isolated mass in data set [3] is 8.0 mg. Also, the “final HPLC purity” value in data set [1] is listed as 92.6%.

As for [Asn^8ψ[CH2NH]-Ser^9]GRF(1-29)NH2, the outcome in data set [1] is recorded as “could not be synthesised”.

“pGlu-Gln-Trp-Ala-Val-Gly-His-Leuψ[CH2NH]Leu-NH2” showed an isolated mass in data set [4] of 60 mg.

Regarding pGlu-Gln-Trp-Ala-Val-Gly-His-Sta-NH2, in data set [5], the isolated mass is recorded as 77 mg.
